According to the supplement of paper PMC12067093, “Discovery and optimisation of a covalent ligand for TRIM25 and its application to targeted protein ubiquitination” (Chemical Science, 2025):
The other results are listed elsewhere or left out.

Sequences of proteins named here, by UniProt entry; tags and fusion partners are left off. A change or cut given only in a name is not applied to a line headed by its entry.
UniProt Q9Y4C8: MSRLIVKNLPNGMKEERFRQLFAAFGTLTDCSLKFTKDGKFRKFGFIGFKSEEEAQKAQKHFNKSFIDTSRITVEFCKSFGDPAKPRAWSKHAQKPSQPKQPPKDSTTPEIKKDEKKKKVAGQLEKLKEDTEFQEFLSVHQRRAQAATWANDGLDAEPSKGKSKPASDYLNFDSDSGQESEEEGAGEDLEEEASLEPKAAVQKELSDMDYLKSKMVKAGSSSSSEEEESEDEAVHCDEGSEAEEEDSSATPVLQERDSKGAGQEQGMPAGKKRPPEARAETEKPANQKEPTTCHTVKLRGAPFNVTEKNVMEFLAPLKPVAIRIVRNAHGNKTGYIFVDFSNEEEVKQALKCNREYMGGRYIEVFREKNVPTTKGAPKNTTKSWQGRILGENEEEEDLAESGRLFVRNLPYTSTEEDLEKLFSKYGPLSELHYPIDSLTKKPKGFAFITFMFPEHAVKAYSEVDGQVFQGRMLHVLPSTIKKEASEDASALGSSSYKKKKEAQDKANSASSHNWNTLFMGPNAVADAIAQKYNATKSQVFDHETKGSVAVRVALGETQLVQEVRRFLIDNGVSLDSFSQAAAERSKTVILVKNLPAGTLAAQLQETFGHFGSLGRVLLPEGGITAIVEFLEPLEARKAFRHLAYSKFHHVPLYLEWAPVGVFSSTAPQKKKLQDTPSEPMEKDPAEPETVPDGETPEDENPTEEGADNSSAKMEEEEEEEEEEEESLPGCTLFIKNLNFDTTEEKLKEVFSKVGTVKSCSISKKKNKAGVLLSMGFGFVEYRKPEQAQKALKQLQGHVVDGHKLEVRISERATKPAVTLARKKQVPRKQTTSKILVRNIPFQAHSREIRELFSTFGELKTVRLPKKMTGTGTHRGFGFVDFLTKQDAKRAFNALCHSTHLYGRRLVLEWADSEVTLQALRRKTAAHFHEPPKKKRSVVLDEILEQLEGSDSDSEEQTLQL
UniProt Q9NW13: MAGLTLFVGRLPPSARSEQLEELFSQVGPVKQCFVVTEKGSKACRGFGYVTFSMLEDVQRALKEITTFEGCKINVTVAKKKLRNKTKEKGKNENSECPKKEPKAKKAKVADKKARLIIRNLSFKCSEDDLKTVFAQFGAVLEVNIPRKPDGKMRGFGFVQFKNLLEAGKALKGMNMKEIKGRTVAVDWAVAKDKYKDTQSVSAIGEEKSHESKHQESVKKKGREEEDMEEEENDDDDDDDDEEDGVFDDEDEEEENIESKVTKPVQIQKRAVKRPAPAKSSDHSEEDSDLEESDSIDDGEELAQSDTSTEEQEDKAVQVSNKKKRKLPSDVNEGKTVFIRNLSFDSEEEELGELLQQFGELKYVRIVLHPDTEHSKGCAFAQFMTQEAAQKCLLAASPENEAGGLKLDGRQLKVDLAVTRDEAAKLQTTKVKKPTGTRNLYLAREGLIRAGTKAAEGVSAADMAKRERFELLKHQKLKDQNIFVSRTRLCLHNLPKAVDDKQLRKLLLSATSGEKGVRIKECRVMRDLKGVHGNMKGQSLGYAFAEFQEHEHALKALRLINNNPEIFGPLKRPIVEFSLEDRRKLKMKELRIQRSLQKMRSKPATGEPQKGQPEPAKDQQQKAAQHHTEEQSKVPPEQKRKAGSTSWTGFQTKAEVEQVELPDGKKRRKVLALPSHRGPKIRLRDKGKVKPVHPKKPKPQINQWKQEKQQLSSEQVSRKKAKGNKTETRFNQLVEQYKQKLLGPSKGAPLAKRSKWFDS
UniProt P62877, whole entry, looked up: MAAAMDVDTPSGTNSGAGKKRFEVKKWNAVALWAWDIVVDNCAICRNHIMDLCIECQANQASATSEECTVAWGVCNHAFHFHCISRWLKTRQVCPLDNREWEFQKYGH
UniProt Q8TDY2, whole entry, looked up: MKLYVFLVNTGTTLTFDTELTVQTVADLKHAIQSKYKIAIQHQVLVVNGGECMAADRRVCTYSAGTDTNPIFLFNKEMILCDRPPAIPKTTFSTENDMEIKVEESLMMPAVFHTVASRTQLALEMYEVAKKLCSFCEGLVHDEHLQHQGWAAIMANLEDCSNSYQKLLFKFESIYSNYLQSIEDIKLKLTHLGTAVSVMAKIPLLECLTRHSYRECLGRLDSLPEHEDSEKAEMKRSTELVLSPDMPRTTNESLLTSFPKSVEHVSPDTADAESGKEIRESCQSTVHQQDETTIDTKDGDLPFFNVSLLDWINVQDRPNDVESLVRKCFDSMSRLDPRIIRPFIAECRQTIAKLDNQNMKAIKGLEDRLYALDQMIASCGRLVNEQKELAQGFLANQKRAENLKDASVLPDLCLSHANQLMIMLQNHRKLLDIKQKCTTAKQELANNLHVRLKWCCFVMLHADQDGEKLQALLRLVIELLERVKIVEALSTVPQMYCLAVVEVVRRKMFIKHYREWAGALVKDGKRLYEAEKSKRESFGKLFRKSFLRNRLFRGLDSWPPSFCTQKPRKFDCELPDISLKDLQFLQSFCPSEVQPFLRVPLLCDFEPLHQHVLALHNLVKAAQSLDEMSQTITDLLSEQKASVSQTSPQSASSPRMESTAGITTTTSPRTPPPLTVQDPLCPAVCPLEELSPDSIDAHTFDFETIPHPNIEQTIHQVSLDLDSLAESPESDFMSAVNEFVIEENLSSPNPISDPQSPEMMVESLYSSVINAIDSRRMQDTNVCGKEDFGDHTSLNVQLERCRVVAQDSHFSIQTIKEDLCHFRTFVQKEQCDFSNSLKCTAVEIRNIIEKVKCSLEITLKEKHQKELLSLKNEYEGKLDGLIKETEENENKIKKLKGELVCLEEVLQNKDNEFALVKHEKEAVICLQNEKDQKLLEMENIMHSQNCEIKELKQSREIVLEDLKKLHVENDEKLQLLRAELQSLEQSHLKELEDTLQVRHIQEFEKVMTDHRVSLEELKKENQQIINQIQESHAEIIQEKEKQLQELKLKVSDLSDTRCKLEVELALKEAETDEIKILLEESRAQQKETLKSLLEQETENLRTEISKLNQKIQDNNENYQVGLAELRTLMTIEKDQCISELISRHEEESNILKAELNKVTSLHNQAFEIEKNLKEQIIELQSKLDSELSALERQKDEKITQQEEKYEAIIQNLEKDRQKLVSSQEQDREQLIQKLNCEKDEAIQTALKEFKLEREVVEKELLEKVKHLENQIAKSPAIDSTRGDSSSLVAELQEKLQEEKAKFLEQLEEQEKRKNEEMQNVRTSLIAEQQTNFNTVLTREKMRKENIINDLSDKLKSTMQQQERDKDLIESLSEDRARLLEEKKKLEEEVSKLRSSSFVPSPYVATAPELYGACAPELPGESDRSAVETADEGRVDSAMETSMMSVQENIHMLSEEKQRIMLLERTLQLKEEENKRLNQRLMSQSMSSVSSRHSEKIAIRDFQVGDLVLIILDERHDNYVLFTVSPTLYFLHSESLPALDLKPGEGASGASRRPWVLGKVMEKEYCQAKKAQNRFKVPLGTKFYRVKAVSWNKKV
UniProt P18754: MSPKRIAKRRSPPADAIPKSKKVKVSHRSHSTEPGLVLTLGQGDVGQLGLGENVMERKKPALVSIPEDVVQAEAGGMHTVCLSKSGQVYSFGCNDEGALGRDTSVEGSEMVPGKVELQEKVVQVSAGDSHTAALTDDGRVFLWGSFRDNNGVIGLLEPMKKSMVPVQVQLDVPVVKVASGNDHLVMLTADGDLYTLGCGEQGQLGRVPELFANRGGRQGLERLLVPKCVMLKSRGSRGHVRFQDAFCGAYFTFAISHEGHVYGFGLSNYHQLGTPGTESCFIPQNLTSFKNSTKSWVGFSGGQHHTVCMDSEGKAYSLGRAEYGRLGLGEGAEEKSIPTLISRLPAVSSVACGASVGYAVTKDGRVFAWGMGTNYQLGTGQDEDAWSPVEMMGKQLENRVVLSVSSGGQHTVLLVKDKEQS
UniProt Q9H2L5: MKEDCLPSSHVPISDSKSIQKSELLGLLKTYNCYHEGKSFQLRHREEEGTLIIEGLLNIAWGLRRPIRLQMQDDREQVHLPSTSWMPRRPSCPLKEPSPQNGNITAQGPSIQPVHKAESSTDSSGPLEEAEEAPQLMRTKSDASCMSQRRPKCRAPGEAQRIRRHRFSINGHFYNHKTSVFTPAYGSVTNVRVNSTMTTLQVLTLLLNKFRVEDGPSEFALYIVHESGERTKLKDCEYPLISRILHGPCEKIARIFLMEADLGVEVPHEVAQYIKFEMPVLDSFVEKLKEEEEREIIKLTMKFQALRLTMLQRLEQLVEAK
UniProt Q06330: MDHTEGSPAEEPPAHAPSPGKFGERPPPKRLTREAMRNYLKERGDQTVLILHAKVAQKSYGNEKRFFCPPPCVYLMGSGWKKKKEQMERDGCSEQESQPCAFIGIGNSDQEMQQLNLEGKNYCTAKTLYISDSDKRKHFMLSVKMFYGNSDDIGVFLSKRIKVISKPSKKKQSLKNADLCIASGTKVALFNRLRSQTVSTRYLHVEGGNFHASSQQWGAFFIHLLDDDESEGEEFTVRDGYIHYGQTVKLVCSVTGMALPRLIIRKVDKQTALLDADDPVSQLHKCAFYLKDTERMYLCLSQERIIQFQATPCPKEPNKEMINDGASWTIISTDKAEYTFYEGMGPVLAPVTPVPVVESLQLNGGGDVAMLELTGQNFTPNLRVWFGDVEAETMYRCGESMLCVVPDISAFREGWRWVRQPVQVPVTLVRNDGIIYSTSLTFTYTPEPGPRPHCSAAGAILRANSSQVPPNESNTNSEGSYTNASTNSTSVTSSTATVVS
UniProt Q9H477: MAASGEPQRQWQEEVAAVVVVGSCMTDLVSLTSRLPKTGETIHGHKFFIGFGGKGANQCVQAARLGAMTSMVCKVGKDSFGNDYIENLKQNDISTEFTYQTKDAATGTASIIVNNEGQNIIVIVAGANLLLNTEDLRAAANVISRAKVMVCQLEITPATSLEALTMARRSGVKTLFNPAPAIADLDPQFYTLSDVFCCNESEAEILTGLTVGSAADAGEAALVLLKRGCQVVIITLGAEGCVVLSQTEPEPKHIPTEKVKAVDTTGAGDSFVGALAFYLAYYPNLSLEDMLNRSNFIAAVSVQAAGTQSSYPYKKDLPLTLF
UniProt Q86X27: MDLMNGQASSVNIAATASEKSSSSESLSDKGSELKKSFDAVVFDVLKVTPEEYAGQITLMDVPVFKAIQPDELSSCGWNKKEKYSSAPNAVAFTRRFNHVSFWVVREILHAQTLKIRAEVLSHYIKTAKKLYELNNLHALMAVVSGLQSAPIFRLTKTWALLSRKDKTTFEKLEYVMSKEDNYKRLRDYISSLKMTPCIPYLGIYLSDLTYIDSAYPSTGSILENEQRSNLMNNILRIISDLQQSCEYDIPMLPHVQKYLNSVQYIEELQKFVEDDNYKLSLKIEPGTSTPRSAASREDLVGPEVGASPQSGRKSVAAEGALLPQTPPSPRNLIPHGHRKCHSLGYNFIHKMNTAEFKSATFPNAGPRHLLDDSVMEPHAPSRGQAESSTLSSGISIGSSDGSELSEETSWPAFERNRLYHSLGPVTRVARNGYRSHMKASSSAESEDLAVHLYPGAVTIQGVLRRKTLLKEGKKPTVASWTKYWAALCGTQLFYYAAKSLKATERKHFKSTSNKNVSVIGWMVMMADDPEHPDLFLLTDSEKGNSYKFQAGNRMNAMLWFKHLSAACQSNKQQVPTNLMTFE
UniProt Q9P258, whole entry, looked up: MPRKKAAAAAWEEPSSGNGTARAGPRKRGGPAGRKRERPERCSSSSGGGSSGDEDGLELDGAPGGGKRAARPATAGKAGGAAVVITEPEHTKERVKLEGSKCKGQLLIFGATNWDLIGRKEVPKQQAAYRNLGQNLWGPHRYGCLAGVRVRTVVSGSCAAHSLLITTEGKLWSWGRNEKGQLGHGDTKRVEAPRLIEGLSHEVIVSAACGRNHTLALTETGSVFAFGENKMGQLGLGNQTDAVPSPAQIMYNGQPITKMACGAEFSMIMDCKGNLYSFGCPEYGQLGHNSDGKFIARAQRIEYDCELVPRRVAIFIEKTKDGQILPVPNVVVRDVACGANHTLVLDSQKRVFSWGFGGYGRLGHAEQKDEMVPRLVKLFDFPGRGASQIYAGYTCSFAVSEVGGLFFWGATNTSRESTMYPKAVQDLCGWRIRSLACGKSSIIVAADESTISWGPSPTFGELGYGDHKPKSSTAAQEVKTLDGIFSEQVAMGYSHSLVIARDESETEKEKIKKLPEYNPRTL

Compound: CC1Cc2ccccc2N1C(=O)C1CCCN(C1)C(=O)CCl (mixture of isomers) [TRIM25 ligand 11 (diastereomer mixture)]
Assay: probe-labelled cysteine peptide fold change vs DMSO (competition) (log2 fold change); higher = less target engagement (more negative = stronger competition)
Settings: THP-1, incubation time: 4 h
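Further: competitive chemoproteomic profiling in live THP-1 cells with an iodoacetamide desthiobiotin (IA-DTB) probe, comparing probe-labelled peptide intensities in compound-treated cells against DMSO-treated controls.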

Target	probe-labelled cysteine peptide fold change (10 µM)	probe-labelled cysteine peptide fold change (50 µM)
RBM19_Q9Y4C8_293_EPTTCHTVK (UniProt Q9Y4C8)	0.0444	0.0582
RBM28_Q9NW13_392_CLLAASPENEAGGLK (UniProt Q9NW13)	-0.0103	0.0341
RBX1_P62877_94_QVCPLDNR (UniProt P62877)	0.0929	0.159
RB1CC1_Q8TDY2_603_VPLLCDFEPLHQHVLALHNLVK (UniProt Q8TDY2)	-0.121	0.00852
RCC1_P18754_308_SWVGFSGGQHHTVCMDSEGK (UniProt P18754)	-0.101	-0.0751
RASSF4_Q9H2L5_236_DCEYPLISR (UniProt Q9H2L5)	-0.103	0.0181
RBPJ_Q06330_68+72_FFCPPPCVYLMGSGWK (UniProt Q06330)	-0.0804	-0.135
RBKS_Q9H477_59_GANQCVQAAR (UniProt Q9H477)	-0.143	-0.00794
RALGPS2_Q86X27_341_CHSLGYNFIHK (UniProt Q86X27)	0.0251	0.0325
RCC2_Q9P258_337_DVACGANHTLVLDSQKR (UniProt Q9P258)	-0.0188	0.0275

Random excerpt: 2 entries already listed.
Target	probe-labelled cysteine peptide fold change (10 µM)	probe-labelled cysteine peptide fold change (50 µM)
RBM28_Q9NW13_392_CLLAASPENEAGGLK (UniProt Q9NW13)	-0.0103	0.0341
RB1CC1_Q8TDY2_603_VPLLCDFEPLHQHVLALHNLVK (UniProt Q8TDY2)	-0.121	0.00852
